Results of single-concentration screens

Sequences of proteins named here, by UniProt entry; tags and fusion partners are left off.
UniProt I6X8D2, whole entry: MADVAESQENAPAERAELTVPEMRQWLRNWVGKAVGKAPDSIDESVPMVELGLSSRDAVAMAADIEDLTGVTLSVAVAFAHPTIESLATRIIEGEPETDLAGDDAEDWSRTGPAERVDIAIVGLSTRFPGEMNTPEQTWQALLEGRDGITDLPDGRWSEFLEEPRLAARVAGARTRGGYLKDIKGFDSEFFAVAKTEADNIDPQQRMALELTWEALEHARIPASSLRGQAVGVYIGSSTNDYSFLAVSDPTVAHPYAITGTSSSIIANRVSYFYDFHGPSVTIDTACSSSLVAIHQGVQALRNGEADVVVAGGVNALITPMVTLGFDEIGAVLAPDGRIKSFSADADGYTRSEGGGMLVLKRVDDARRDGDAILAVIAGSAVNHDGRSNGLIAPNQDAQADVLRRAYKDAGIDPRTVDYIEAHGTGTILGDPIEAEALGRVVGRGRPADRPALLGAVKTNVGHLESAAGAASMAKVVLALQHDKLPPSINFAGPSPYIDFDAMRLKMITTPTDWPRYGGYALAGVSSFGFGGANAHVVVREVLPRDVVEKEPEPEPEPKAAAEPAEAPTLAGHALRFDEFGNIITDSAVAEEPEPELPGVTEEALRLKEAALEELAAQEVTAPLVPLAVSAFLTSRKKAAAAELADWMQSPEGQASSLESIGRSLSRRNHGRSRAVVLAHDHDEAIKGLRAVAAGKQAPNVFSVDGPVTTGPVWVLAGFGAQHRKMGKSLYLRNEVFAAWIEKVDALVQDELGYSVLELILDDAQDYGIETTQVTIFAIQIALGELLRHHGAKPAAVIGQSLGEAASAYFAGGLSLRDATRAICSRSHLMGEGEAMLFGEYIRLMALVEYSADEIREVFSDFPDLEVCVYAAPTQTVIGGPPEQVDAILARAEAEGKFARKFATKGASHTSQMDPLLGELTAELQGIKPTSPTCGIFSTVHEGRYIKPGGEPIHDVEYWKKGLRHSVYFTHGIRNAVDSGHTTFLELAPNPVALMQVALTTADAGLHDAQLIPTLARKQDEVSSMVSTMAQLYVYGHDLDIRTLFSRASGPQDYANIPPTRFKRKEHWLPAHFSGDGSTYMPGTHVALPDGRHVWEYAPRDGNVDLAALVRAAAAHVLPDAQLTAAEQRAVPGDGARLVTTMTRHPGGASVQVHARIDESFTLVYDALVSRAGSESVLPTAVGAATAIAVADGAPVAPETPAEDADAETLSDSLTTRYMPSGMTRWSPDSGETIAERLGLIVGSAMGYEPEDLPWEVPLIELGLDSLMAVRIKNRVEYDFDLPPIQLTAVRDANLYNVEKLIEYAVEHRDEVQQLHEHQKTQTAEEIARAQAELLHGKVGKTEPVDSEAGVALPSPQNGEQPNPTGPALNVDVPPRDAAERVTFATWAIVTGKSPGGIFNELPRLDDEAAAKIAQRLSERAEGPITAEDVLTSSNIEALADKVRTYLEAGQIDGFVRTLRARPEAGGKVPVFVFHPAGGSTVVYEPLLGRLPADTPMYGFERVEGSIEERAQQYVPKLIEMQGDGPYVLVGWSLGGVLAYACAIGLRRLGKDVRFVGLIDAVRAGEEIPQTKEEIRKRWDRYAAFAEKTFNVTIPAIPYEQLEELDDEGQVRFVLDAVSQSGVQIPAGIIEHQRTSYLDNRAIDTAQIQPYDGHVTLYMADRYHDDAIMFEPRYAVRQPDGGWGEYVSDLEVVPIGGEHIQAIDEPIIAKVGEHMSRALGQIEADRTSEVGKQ

The values are deposited in ChEMBL (CHEMBL3988442, “University of Dundee, Small-Polar-MMV Screening Library” (2021)).

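Polyketide synthase Pks13, Mycobacterium tuberculosis (UniProt I6X8D2). Enzyme assay of the thioesterase domain of polyketide synthase 13; the read-out is not stated. Compounds at 30 µM. The record gives no direction; the compounds picked for IC50 retests had high values, so higher reads as stronger inhibition. Size under these conditions: about 67,000 compounds, about 300 of them at 50% or above in at least one test.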

Results are given as percent effect. The controls that fix the scale are not given in the record; negative values are as filed. This is an unselected part of the compounds tested.

| Compound | percent effect |
|---|---|
| `CCn1ccc2ccnc(CC3CN(C(=O)c4cnco4)C3)c21` | 9.614 |
| `Cc1cc(N2CCC(N(C)C(=O)c3ccccc3)CC2)nc(C)n1` | -7.81 |
| `Cc1cc(C(=O)N2CC[C@@H]3CN(C)S(=O)(=O)[C@@H]3CC2)no1` | -19.47 |
| `CCCn1ncc(CN2CCCC(C(=O)c3ccc(Cl)cc3C)C2)c1C` (centres undefined) | -9.905 |
| `Nc1nccnc1C(=O)N1CC(OCc2cccc3ccccc23)C1` | 40.31 |
| `CCCOCCn1ncc(N2CCCC2)cc1=O` | -15.01 |
| `CCC(C)NS(=O)(=O)c1ccc(C(=O)NC2(C#N)CCC2)cc1` (centres undefined) | 6.535 |
| `CSCCC(=O)N1CCC(Oc2cc(C)ccc2F)(C(=O)O)CC1` | -1.864 |
| `Cc1cnc(C)c(-c2cc(O)c3c(c2)CN(Cc2nccs2)CCO3)n1` | -24.92 |
| `O=C(N[C@@H]1CN(Cc2ccccc2)C[C@@H]2CCCO[C@@H]21)C1CC1` | -12.93 |
| `Cc1cc(OC(F)F)c(C(=O)NCC(O)c2cccc(F)c2)s1` (centres undefined) | -73.29 |
| `COCCCNC(=O)C1CCN(CC2(O)CCC(C)CC2)CC1` (centres undefined) | -24.33 |
| `CNc1ncc2c(n1)CN(C1CCCC1)C2=O` | -5.873 |
| `CN(C)CCCN1CC2(CCN(C3CCCOC3)CC2)OC1=O` (centres undefined) | -6.667 |
| `CC(CCN1CCn2nc(CNC(=O)N(C)C)cc2C1)c1ccccc1` (centres undefined) | -12.48 |
| `CC(CO)CN(Cc1ccccc1)C(=O)c1csc(CN(C)C)n1` (centres undefined) | -9.392 |
| `O=C1N(c2cccc(F)c2)Cc2nc(=O)n(Cc3ccccc3Cl)n21` | -10.21 |
| `CCc1ccc(C(C)NCc2nccn2Cc2ccccc2)o1` (centres undefined) | -30.49 |
| `NC(=O)COc1ccc(CNCc2cc(F)cc(F)c2)cc1` | -6.222 |
| `Cc1nn(CC(=O)N2CCC3(CN(C)C(=O)O3)C2)c(=O)c2ccccc12` (centres undefined) | -9.026 |
| `CCC1CCCCN1C(=O)Cn1cnc(C#N)n1` (centres undefined) | -35.1 |
| `c1coc(CNc2ncc3c(n2)C2(CCNC2)COC3)c1` (centres undefined) | -29.08 |
| `O=C(Cc1ccc2c(c1)CCO2)N1CCN(c2ccncc2)CC1` | -25.27 |
| `CC(Oc1ccccc1C(F)(F)F)C(=O)NCC(N)=O` (centres undefined) | -10.18 |
| `CN(C)c1nccc(N2CCO[C@H]3CN(Cc4nccn4C)C[C@H]32)n1` | -9.016 |
| `CN1CC(NC(=O)CCOc2cccc(Cl)c2)CC1=O` (centres undefined) | -1.55 |
| `CCc1cc(N(C)CCc2noc(C)n2)nc(N2CCOCC2)n1` | -25.93 |
| `COC(=O)c1ncccc1N1CCN(C(=O)CN2CCOCC2)CC1` | 11.33 |
| `COCCCNC(=O)Nc1ccc(F)c(C(N)=O)c1` | -15.51 |
| `CCc1ccc(C2CCCCCN2C(=O)CNC(=O)C2CC2)o1` (centres undefined) | -14.83 |
| `Cc1cnc(-n2cnnc2)c(-c2cccc3c2CCNC3)c1` | -37.18 |
| `CCc1nc(CN2CC[C@@](O)(CCOC)[C@H](C)C2)cs1` | -38.75 |
| `Cc1ccnn1CCCNC(=O)C1CCN(S(C)(=O)=O)CC1` | -5.863 |
| `Cc1cnn(CCNCC(O)COc2ccc(F)cc2)c1` (centres undefined) | -8.613 |
| `C[C@H]1CN(C(=O)c2cccc(F)c2Cl)CCN1S(C)(=O)=O` | -3.828 |
| `COCCNc1ccc(CC2CCCNC2)cn1` (centres undefined) | 6.562 |
| `CC(NC(=O)NCc1cccc(F)c1)(C(=O)O)c1ccco1` (centres undefined) | -6.917 |
| `Cc1cnn(CCNCC(O)COc2c(Cl)cccc2Cl)c1` (centres undefined) | -5.527 |
| `Oc1cc(C2CCCCN2Cc2cccs2)nc(-c2ccccn2)n1` (centres undefined) | 7.139 |
| `COCCCNC(=O)c1cc(-c2ccc(OC)cc2)nn1C` | -15.77 |
| `O=C(c1cccs1)N1CCC(n2nc(-c3ccco3)ccc2=O)CC1` | -17.17 |
| `COCCN1C(=O)C2(CCC(C(=O)Nc3ccc(F)cc3)CC2)N=C1C` (centres undefined) | -22.04 |
| `Cc1cnn(CC2CCCN2C(=O)Cc2cn3ccsc3n2)c1` (centres undefined) | -30.17 |
| `Cc1ncc(CN2CCOC(CNc3cccnn3)C2)s1` (centres undefined) | 5.076 |
| `COC1CCN(S(=O)(=O)N2CC[C@@](O)(C3CCC3)[C@H](C)C2)CC1` | -10.29 |
| `O=C(c1cnccn1)N1CCO[C@H]2[C@H](OCc3cccnc3)CC[C@@H]21` | -31.12 |
| `CSCCCNC(=O)Nc1cccc(-c2nccn2C)c1` | -13.61 |
| `CCN1CCC2(CC1)CC(NCc1cccs1)c1ccccc1O2` (centres undefined) | 3.205 |
| `CN1CCC(N(C)C[C@H]2CC[C@@H](Cc3cccc(CO)c3)O2)CC1` | -23.9 |
| `Cc1noc(C2CCCN(C(=O)c3ccc(F)cc3F)C2)n1` (centres undefined) | -12.97 |
| `CN(C)c1ccc(C(=O)N2CCCCC2CC(N)=O)c(F)c1` (centres undefined) | -15.03 |